The source of these data is the supplement of paper PMC10849652.

By UniProt entry, the sequences of proteins in these tests, tags left out. Where a name states a change or a piece, a line headed by the entry shows the natural chain unless it says otherwise.
UniProt Q5VTE0, whole entry, looked up: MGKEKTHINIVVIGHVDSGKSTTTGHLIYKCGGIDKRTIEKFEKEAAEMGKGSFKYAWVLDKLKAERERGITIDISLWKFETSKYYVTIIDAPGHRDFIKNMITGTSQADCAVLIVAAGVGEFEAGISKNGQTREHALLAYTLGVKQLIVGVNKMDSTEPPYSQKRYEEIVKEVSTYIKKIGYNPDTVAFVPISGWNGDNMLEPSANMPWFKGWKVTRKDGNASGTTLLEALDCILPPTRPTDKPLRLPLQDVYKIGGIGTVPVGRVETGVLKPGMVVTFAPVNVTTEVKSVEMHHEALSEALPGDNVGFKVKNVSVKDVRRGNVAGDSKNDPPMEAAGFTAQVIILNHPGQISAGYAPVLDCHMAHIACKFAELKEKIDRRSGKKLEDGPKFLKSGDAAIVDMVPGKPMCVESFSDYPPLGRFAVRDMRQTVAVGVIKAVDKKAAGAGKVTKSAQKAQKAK
UniProt P55039: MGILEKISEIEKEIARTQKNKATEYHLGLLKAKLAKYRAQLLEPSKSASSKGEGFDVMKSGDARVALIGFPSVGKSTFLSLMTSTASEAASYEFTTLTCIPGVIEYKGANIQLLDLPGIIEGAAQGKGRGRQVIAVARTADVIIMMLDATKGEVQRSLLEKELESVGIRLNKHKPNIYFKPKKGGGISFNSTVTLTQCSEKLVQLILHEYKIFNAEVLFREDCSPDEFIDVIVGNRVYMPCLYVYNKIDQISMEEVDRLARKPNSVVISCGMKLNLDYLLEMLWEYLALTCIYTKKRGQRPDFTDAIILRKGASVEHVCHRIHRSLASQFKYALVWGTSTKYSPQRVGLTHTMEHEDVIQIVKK
UniProt P23919: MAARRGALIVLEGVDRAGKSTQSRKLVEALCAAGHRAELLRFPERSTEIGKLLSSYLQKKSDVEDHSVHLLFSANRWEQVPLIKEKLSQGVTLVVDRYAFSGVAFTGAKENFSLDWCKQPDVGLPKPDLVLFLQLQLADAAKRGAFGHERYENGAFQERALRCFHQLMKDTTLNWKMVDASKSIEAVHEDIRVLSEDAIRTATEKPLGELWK
UniProt P47813, whole entry, looked up: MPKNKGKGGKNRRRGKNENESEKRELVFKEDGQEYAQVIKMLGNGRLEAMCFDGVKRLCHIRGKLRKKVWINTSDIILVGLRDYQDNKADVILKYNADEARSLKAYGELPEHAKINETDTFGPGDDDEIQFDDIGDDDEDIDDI
UniProt Q13011: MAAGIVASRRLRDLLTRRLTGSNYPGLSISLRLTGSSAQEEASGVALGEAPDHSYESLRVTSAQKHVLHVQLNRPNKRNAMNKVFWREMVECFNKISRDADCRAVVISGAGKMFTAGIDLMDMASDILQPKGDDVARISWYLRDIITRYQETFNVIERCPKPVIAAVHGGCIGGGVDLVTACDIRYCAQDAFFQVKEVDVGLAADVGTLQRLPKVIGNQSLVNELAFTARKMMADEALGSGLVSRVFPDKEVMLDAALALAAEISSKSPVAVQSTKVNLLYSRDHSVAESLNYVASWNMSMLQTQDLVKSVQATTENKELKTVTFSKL
UniProt Q99956: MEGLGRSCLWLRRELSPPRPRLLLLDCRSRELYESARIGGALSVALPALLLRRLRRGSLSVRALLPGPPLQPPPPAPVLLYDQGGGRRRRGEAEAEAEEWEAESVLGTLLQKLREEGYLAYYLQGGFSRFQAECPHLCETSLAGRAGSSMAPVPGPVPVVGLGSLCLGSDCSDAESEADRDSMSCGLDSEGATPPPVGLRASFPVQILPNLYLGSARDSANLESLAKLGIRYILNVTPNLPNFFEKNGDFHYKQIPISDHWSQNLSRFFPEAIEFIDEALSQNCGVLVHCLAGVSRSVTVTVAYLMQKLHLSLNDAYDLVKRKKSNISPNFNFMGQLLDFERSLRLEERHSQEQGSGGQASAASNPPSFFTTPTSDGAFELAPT
UniProt Q96DC8: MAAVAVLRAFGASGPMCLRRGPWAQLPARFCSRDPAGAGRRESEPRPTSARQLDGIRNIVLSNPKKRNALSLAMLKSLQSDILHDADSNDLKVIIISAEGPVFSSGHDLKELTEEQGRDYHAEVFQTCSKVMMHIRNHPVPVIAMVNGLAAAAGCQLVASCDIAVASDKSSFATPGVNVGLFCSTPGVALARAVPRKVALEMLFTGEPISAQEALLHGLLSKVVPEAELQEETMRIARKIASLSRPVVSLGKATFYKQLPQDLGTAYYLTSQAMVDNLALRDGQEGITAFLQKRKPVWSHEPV
UniProt P63172, whole entry, looked up: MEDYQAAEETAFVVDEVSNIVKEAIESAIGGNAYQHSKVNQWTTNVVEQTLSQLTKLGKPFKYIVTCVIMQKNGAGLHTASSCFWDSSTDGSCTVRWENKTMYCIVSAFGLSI
UniProt Q7Z2Z2: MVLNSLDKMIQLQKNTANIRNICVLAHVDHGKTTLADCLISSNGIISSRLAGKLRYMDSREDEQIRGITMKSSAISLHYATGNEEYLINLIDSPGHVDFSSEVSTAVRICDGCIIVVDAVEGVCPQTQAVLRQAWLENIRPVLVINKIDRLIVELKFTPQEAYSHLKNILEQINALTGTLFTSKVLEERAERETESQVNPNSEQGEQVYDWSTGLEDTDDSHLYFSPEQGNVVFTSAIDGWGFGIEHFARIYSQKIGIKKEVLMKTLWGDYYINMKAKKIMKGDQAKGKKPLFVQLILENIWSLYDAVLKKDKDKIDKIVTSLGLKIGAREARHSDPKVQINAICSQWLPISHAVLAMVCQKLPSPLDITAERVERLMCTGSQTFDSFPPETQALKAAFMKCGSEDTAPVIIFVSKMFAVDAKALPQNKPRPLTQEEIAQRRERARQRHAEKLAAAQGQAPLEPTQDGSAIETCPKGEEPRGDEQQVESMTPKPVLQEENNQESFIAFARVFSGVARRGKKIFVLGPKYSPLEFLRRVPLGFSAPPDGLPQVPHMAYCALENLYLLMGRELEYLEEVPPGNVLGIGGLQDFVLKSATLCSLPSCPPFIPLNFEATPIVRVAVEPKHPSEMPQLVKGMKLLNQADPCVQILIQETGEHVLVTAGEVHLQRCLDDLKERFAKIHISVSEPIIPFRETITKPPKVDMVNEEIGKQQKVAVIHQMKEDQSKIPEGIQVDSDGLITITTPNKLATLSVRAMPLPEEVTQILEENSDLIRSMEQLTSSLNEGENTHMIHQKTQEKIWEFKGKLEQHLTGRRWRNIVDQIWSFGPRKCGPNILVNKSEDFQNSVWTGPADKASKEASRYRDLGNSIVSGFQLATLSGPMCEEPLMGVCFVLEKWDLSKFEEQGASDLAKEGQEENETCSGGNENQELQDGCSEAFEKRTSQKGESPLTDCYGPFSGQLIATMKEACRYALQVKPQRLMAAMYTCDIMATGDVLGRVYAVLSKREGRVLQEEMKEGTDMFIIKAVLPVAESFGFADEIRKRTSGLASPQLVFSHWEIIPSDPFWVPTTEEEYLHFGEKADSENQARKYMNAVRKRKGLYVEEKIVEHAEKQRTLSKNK
UniProt O00716: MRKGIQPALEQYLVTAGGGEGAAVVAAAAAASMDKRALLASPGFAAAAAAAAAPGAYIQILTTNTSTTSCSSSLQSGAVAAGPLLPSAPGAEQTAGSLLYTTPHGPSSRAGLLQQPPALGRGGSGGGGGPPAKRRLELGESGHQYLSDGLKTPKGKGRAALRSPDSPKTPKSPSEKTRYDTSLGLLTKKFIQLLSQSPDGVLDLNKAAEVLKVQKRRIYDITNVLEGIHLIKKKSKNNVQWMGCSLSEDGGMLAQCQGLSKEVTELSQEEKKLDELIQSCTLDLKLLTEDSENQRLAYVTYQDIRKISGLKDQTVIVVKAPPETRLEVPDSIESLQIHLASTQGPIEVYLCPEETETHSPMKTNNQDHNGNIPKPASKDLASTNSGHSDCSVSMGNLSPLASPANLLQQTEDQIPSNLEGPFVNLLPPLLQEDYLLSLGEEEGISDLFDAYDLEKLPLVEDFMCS
EEF1AKMT2, A0A494BZY7, UniProt A0A494BZY7, whole entry, looked up: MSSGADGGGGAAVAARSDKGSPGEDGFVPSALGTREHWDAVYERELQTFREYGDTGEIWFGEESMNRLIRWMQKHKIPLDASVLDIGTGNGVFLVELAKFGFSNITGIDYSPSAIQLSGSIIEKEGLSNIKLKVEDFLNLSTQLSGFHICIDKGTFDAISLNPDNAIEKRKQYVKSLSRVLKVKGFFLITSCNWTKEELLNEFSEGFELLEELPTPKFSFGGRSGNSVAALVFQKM
UniProt P33316: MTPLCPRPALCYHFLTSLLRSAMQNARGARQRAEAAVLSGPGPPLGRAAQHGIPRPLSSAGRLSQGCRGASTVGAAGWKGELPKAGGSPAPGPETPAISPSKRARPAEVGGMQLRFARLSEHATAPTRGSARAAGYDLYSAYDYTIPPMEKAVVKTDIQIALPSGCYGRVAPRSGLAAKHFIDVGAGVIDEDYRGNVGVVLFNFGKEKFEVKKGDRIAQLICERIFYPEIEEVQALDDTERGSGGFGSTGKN
UniProt Q14126: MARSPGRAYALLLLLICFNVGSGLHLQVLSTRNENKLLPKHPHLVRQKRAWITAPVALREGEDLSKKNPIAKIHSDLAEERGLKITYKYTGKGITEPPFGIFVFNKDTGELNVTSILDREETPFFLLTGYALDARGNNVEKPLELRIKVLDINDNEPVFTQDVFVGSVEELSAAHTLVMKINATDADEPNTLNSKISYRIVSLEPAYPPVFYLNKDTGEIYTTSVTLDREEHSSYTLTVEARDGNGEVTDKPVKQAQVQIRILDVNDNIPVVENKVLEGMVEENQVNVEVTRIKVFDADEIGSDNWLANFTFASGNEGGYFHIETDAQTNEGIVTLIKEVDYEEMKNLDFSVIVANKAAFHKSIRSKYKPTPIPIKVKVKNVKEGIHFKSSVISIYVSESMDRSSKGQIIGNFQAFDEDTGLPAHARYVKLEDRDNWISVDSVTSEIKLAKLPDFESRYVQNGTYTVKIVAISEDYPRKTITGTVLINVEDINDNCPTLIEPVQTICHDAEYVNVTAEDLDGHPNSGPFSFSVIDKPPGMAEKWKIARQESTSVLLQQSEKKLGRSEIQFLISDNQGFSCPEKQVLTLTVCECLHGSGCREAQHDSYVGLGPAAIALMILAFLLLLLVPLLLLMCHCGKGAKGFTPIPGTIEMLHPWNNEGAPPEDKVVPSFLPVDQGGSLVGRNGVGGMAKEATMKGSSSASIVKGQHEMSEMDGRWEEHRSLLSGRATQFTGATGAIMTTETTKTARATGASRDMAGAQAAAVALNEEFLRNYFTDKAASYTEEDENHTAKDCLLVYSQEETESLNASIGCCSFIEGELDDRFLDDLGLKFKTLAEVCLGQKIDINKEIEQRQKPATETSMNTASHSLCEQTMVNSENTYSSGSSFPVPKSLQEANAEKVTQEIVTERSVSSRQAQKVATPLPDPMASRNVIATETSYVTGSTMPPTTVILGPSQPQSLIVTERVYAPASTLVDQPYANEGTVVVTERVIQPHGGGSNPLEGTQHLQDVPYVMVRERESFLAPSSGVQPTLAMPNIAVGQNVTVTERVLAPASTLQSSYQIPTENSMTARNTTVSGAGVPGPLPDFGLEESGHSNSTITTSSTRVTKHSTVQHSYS
UniProt Q8N9N8: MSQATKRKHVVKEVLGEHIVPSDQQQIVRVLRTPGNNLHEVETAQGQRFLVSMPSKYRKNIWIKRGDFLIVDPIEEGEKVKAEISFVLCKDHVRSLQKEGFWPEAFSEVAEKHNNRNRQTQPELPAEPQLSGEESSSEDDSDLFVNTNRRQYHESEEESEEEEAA
UniProt Q92785, whole entry, looked up: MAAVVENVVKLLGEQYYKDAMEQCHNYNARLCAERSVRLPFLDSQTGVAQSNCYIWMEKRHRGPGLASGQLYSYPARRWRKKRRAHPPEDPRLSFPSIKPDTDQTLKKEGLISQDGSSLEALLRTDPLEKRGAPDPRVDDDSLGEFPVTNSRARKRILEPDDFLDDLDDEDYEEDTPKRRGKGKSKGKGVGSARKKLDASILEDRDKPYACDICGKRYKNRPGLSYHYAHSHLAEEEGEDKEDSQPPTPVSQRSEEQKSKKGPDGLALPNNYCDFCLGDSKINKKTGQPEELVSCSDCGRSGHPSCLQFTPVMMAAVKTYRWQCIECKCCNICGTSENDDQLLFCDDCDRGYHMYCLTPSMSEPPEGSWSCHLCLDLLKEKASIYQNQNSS
UniProt P26641, whole entry, looked up: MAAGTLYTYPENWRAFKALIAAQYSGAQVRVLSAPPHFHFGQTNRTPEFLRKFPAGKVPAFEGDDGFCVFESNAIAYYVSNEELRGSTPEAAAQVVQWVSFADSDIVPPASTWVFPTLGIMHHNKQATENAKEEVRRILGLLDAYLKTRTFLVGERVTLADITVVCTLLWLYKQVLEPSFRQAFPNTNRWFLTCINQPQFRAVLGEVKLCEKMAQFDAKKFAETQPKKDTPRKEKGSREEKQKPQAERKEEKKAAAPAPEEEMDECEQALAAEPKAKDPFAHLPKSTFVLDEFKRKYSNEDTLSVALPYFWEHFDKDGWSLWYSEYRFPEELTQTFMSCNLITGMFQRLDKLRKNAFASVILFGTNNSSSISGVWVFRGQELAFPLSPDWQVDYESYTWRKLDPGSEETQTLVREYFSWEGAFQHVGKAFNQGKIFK

This is one part of the list.

Compound in one test: CCn1cc(-c2ccnc3[nH]c(-c4cccc(CN(C)C)c4)cc23)c(-c2ccc(NC(=O)N(C)C)cc2)n1
Kind of test: log2 fold change, soluble protein after heating vs DMSO (PISA); higher = thermal stabilisation; K562 lysate, 10 uM; active = over 0.2 and 3.5 SD of the protein, either way, in both replicates (recomputed). The method in brief:
(§1)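 Thermal stability, expressed as log-two fold change relative to solvent controls, is given from duplicates. Crude K562 extract in PBS pH 7.4 with 1 mM MgCl2, at 1 mg/mL protein, was treated with 10 μM compound for 30 min and heated in aliquots for 3 min across 48°C-58°C. After pooling, adjustment to 0.5% NP-40 at 4°C and centrifugation at 21,000xg for 90 min, supernatant protein was measured by TMTpro 16plex LC-MS/MS with channel sums equalised.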
EEF1A1P5 (UniProt Q5VTE0): the log2 fold change is inactive: -0.105.

As to DRG2 (UniProt P55039), the log2 fold change was inactive: -0.057.

With DTYMK (UniProt P23919), the log2 fold change is inactive: 0.011.

As to EARS2 (UniProt Q5JPH6), the log2 fold change was inactive: -0.046.

For EIF1 (UniProt P41567), the log2 fold change is inactive: 0.009.

As to EEF2 (UniProt P13639), the log2 fold change was inactive: -0.007.

For the target EIF1AX (UniProt P47813), the log2 fold change was inactive: 0.09.

As to ECH1 (UniProt Q13011), the log2 fold change is inactive: -0.07.

Consider EEF1B2 (UniProt P24534), for which the log2 fold change is inactive: -0.031.

For the target DUSP9 (UniProt Q99956), the log2 fold change was inactive: 0.01.

On to ECHDC3 (UniProt Q96DC8), for which the log2 fold change is inactive: -0.026.

Regarding DR1 (UniProt Q01658), the log2 fold change was inactive: -0.024.

For DPP7 (UniProt Q9UHL4), the log2 fold change was inactive: -0.003.

Consider DYNLT1 (UniProt P63172), for which the log2 fold change was inactive: -0.029.

Take DPH2 (UniProt Q9BQC3): the log2 fold change is inactive: 0.018.

In the case of DUSP23 (UniProt Q9BVJ7), the log2 fold change was inactive: -0.05.

With DYNC1H1 (UniProt Q14204), the log2 fold change is inactive: -0.011.

On to EFL1 (UniProt Q7Z2Z2), for which the log2 fold change is inactive: 0.067.

In the case of DPY19L1, A0A1B0GW05, the log2 fold change was inactive: -0.022.

As for EDF1 (UniProt O60869), the log2 fold change was inactive: -0.021.

As for EHMT2 (UniProt A2ABF8), the log2 fold change was inactive: -0.026.

For E2F3 (UniProt O00716), the log2 fold change was inactive: -0.037.

On to EEF1AKMT2, A0A494BZY7, for which the log2 fold change is inactive: 0.001.

As to E2F4 (UniProt Q16254), the log2 fold change is inactive: -0.01.

In the case of DUSP12 (UniProt Q9UNI6), the log2 fold change was inactive: -0.041.

As for DUT (UniProt P33316), the log2 fold change is inactive: -0.088.

Turning to DSG2 (UniProt Q14126), the log2 fold change is inactive: 0.01.

As for EIF1AD (UniProt Q8N9N8), the log2 fold change was inactive: -0.021.

As to DPF2 (UniProt Q92785), the log2 fold change is inactive: 0.042.

Turning to EEF1AKNMT (UniProt Q8N6R0), the log2 fold change was inactive: -0.026.

With EDEM3 (UniProt Q9BZQ6), the log2 fold change was inactive: -0.121.

Regarding EEF1G isoform 2 (UniProt P26641), the log2 fold change was inactive: 0.03.

Compound in a further test: CN1CCC(CNc2ccc3ncc(-c4cccc(OC(F)(F)F)c4)n3n2)CC1
The test is described as above. The method in brief: as §1
Take EEF1A1P5 (UniProt Q5VTE0): the log2 fold change is inactive: 0.073.

On to DRG2 (UniProt P55039), for which the log2 fold change is inactive: 0.016.

In the case of DTYMK (UniProt P23919), the log2 fold change was inactive: -0.032.

Turning to EARS2 (UniProt Q5JPH6), the log2 fold change is inactive: 0.053.

As to EIF1 (UniProt P41567), the log2 fold change is inactive: 0.084.

Take EEF2 (UniProt P13639): the log2 fold change was inactive: 0.019.

Take EIF1AX (UniProt P47813): the log2 fold change is inactive: 0.02.

For the target ECH1 (UniProt Q13011), the log2 fold change was active: 0.348.

As for EEF1B2 (UniProt P24534), the log2 fold change is inactive: 0.034.

Take DUSP9 (UniProt Q99956): the log2 fold change was inactive: -0.115.

Turning to ECHDC3 (UniProt Q96DC8), the log2 fold change is inactive: -0.006.

As for DR1 (UniProt Q01658), the log2 fold change is inactive: 0.017.

Take DPP7 (UniProt Q9UHL4): the log2 fold change was inactive: 0.055.

For DYNLT1 (UniProt P63172), the log2 fold change is inactive: 0.04.

In the case of DPH2 (UniProt Q9BQC3), the log2 fold change was inactive: 0.018.

Turning to DUSP23 (UniProt Q9BVJ7), the log2 fold change was inactive: 0.06.

In the case of DYNC1H1 (UniProt Q14204), the log2 fold change is inactive: -0.022.

With EFL1 (UniProt Q7Z2Z2), the log2 fold change is inactive: -0.025.

Regarding DPY19L1, A0A1B0GW05, the log2 fold change was inactive: -0.012.

On to EDF1 (UniProt O60869), for which the log2 fold change was inactive: 0.053.

As to EHMT2 (UniProt A2ABF8), the log2 fold change was inactive: 0.042.

For E2F3 (UniProt O00716), the log2 fold change is inactive: -0.091.

Regarding EEF1AKMT2, A0A494BZY7, the log2 fold change was inactive: -0.026.

On to E2F4 (UniProt Q16254), for which the log2 fold change is inactive: -0.092.

On to DUSP12 (UniProt Q9UNI6), for which the log2 fold change is inactive: 0.038.

As to DUT (UniProt P33316), the log2 fold change was inactive: 0.067.

As for DSG2 (UniProt Q14126), the log2 fold change was inactive: 0.

In the case of EIF1AD (UniProt Q8N9N8), the log2 fold change is inactive: 0.019.

DPF2 (UniProt Q92785): the log2 fold change was inactive: -0.045.

With EEF1AKNMT (UniProt Q8N6R0), the log2 fold change was inactive: -0.031.

EDEM3 (UniProt Q9BZQ6): the log2 fold change is inactive: 0.078.

For the target EEF1G isoform 2 (UniProt P26641), the log2 fold change is inactive: -0.12.

Compound in another test: CN1CCN(CCOc2cc(OC3CCOCC3)c3c(Nc4c(Cl)ccc5c4OCO5)ncnc3c2)CC1 [saracatinib]
The description is as above. The method in brief: as §1
Consider EEF1A1P5 (UniProt Q5VTE0), for which the log2 fold change is inactive: -0.021.

Turning to DRG2 (UniProt P55039), the log2 fold change was inactive: 0.02.

Turning to DTYMK (UniProt P23919), the log2 fold change is inactive: 0.011.

EARS2 (UniProt Q5JPH6): the log2 fold change was inactive: -0.03.

With EIF1 (UniProt P41567), the log2 fold change is inactive: -0.02.

Consider EEF2 (UniProt P13639), for which the log2 fold change was inactive: -0.018.

Turning to EIF1AX (UniProt P47813), the log2 fold change was inactive: -0.023.

Turning to ECH1 (UniProt Q13011), the log2 fold change is inactive: -0.047.

As for EEF1B2 (UniProt P24534), the log2 fold change was inactive: -0.003.

For DUSP9 (UniProt Q99956), the log2 fold change is inactive: 0.06.

Turning to ECHDC3 (UniProt Q96DC8), the log2 fold change is inactive: -0.027.

Take DR1 (UniProt Q01658): the log2 fold change is inactive: 0.014.

As for DPP7 (UniProt Q9UHL4), the log2 fold change was inactive: -0.004.

Consider DYNLT1 (UniProt P63172), for which the log2 fold change is inactive: 0.037.

DPH2 (UniProt Q9BQC3): the log2 fold change is inactive: -0.01.

As to DUSP23 (UniProt Q9BVJ7), the log2 fold change was inactive: -0.006.

Regarding DYNC1H1 (UniProt Q14204), the log2 fold change was inactive: -0.002.

With EFL1 (UniProt Q7Z2Z2), the log2 fold change was inactive: 0.005.

For the target DPY19L1, A0A1B0GW05, the log2 fold change is inactive: 0.018.

Turning to EDF1 (UniProt O60869), the log2 fold change is inactive: 0.012.

Regarding EHMT2 (UniProt A2ABF8), the log2 fold change is inactive: 0.012.

Turning to E2F3 (UniProt O00716), the log2 fold change was inactive: 0.032.

EEF1AKMT2, A0A494BZY7: the log2 fold change was inactive: -0.01.

Regarding E2F4 (UniProt Q16254), the log2 fold change is inactive: -0.049.

Turning to DUSP12 (UniProt Q9UNI6), the log2 fold change was inactive: -0.005.

Regarding DUT (UniProt P33316), the log2 fold change is inactive: -0.018.

Consider DSG2 (UniProt Q14126), for which the log2 fold change is inactive: 0.001.

Take EIF1AD (UniProt Q8N9N8): the log2 fold change was inactive: -0.011.

For the target DPF2 (UniProt Q92785), the log2 fold change is inactive: 0.024.

Regarding EEF1AKNMT (UniProt Q8N6R0), the log2 fold change is inactive: -0.017.

As for EDEM3 (UniProt Q9BZQ6), the log2 fold change is inactive: -0.002.

As to EEF1G isoform 2 (UniProt P26641), the log2 fold change is inactive: -0.02.
